Source: patent publication CN112390885A
These are yes or no findings as the source states them, for the method shown. Some entries that bind do so weakly or less than the wild type.

Amino acid sequences for entries named in this document (tags omitted). A change or cut given only in a name is not applied to a line headed by its entry.
UniProt P09758: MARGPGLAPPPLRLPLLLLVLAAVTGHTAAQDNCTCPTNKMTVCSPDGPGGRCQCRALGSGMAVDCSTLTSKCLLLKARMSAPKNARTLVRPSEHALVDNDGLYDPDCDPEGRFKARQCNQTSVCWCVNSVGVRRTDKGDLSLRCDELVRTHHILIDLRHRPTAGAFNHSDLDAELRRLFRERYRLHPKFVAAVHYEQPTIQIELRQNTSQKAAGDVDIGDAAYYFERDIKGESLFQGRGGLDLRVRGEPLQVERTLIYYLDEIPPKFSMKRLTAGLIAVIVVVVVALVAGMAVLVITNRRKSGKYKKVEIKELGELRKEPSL

What was measured:
[1] = molecular target: 人源TROP2, full length, on transfected cells (CHOK1-hTROP2 2B2; 293F-TROP2 6F6) (human) (UniProt P09758); assay: FACS on CHOK1-hTROP2 cells
[2] = molecular target: 食蟹猴TROP2, full length, on CHOK1 cells (CHOK1-cTROP2 2B2C2) (cynomolgus monkey); assay: FACS on CHOK1-cTROP2 cells
[3] = molecular target: 人源TROP2-hFc蛋白 (免疫原A; human TROP2 Thr88-Thr274 with human IgG Fc tag) (human) (UniProt P09758); assay: ELISA, hTROP2-hFc coated at 1.0 μg/mL

Measured: binding

B1: TROP2抗体 10E12C10F10 (antibody, V domains shown)
VH: QVRLVDSGGGVVQPGRSLRLSCAASGFTFSSYGIHWVRQAPGKGLEWVAVIWYDGNHKFYADSVKGRFTISRDNSKNTLYLQMNSLRAEDTAVYYCARGGILGGYADYWGQGTLVTVSS
VL: DVVMTQTPLSLPVSLGDQASISCRSSQSLVHSYGNTYLHWYLQKPGQSPKLLIYKVSNRFSGVPDRFSGSGSGTDFTLKISRVEAEDLGVYFCSQSTHVPTFGGGTKLEIK
binds: all assays above
